These are yes or no findings as the source states them, for the method shown. Some entries that bind do so weakly or less than the wild type. Sequences can lack the tags named with a protein. One block for each binder: values may come before it.
Biological target: human insulin receptor on human IM-9 cells (human) (UniProt P06213)
Test: flow cytometry competition with biotinylated RHI on IM-9 cells at 4 C

Chains of the proteins cited; added tags and fusions are not shown. Residues count along the entry.
UniProt P06213, residues 28-1382: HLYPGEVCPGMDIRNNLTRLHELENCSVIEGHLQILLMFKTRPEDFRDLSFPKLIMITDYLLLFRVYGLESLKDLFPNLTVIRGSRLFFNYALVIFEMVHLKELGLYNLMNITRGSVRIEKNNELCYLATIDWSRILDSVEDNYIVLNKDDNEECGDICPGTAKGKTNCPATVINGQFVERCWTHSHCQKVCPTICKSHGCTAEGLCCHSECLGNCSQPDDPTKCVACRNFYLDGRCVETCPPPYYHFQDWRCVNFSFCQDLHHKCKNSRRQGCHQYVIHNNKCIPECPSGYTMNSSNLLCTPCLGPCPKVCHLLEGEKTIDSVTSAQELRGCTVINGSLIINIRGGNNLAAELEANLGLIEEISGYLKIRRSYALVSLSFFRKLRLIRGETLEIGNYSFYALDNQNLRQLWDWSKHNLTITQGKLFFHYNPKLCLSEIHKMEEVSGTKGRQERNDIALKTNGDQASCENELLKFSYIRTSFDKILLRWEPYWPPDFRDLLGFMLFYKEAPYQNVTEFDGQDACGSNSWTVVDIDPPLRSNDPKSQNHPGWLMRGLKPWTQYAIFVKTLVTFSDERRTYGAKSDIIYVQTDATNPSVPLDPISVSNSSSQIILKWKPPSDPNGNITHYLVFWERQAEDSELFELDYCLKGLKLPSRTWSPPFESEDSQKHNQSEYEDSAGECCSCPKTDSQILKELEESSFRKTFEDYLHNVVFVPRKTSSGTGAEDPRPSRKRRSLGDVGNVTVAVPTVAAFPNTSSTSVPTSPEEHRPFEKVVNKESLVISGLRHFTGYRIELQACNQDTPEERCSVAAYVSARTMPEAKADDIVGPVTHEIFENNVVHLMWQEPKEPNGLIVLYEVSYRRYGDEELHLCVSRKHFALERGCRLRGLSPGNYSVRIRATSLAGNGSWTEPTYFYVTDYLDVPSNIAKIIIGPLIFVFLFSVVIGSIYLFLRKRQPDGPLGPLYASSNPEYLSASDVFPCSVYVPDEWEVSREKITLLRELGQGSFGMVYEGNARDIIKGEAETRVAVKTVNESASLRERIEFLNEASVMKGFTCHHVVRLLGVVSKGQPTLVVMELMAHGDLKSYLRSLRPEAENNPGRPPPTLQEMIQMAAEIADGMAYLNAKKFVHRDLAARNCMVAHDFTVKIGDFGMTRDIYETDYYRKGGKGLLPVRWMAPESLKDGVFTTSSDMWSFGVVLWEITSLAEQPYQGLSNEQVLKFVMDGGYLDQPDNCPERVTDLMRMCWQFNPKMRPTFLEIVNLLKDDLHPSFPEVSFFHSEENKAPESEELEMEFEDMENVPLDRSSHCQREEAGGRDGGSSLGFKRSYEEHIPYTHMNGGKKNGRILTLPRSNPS

- binding: binds
B1: insulin-Fc fusion protein of SEQ ID NO: 29 (SEQ ID NO: 24 with des hinge D and the mutation cNg-NB138-K; canine IgGB Fc fragment SEQ ID NO: 15) (Fc fusion)
chain: FVNQHLCGSDLVEALALVCGERGFFYTDPTGGGPRRGIVEQCCHSICSLYQLENYCNGGGGAGGGGCPKCPAPEMLGGPSVFIFPPKPKDTLLIARTPEVTCVVVDLDPEDPEVQISWFVDGKQMQTAKTQPREEQFKGTYRVVSVLPIGHQDWLKGKQFTCKVNNKALPSPIERTISKARGQAHQPSVYVLPPSREELSKNTVSLTCLIKDFFPPDIDVEWQSNGQQEPESKYRTTPPQLDEDGSYFLYSKLSVDKSRWQRGDTFICAVMHEALHNHYTQESLSHSPG
notes: Made in HEK293 cells; Non-glycosylated homodimer, 98.1% homodimer; also called cNg-K

- binding: binds
B2: insulin-Fc fusion protein of SEQ ID NO: 27 (SEQ ID NO: 24 with the mutation cNg-NB139-S; canine IgGB Fc fragment SEQ ID NO: 14) (Fc fusion)
chain: FVNQHLCGSDLVEALALVCGERGFFYTDPTGGGPRRGIVEQCCHSICSLYQLENYCNGGGGAGGGGDCPKCPAPEMLGGPSVFIFPPKPKDTLLIARTPEVTCVVVDLDPEDPEVQISWFVDGKQMQTAKTQPREEQFSGTYRVVSVLPIGHQDWLKGKQFTCKVNNKALPSPIERTISKARGQAHQPSVYVLPPSREELSKNTVSLTCLIKDFFPPDIDVEWQSNGQQEPESKYRTTPPQLDEDGSYFLYSKLSVDKSRWQRGDTFICAVMHEALHNHYTQESLSHSPG
notes: Made in HEK293 cells; Non-glycosylated homodimer, 98.3% homodimer; also called cNg-S
